Reference: the M2OR odorant receptor database
Only a part is listed here, and it is no random draw. Calls are pooled over several reports, among them a noisy single-well screen. This is one part of the list.

Chains of the proteins cited; added tags and fusions are not shown. Where a name states a change or a piece, a line headed by the entry shows the natural chain unless it says otherwise. Chains listed by the source or under a name are the forms on record and can include a tag or linker.
UniProt Q8NGC6, as listed by the source: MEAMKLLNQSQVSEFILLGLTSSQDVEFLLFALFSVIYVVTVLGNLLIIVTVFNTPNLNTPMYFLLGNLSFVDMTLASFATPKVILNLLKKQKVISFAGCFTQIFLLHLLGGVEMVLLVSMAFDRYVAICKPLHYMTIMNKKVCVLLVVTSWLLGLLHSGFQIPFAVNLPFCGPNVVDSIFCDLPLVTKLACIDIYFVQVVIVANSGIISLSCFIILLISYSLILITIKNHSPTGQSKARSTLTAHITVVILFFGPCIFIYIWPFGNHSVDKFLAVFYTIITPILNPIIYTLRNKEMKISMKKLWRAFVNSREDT
UniProt Q96R72: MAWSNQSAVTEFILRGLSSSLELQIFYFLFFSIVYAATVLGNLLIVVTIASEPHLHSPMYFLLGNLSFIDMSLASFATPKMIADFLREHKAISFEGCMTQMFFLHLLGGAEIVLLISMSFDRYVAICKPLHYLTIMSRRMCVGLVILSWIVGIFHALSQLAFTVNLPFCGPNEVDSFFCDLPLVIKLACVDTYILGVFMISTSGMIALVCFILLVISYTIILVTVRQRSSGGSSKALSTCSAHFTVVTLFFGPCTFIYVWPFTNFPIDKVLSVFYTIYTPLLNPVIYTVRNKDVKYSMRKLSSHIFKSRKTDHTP
OR4K2, as listed by the source: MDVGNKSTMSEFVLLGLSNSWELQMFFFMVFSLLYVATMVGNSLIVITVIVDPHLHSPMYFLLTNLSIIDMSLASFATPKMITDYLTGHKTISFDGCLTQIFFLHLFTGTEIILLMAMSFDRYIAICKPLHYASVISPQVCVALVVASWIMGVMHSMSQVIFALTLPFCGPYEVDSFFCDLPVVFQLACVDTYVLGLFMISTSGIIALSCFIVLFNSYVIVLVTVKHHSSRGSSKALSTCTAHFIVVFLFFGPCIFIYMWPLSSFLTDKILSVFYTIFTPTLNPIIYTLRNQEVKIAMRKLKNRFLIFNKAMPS

Tests used:
Settings in all cases: stereoisomer not certain
OR4F4 = system: T1, OR4F4
T1 sequence (whole entry): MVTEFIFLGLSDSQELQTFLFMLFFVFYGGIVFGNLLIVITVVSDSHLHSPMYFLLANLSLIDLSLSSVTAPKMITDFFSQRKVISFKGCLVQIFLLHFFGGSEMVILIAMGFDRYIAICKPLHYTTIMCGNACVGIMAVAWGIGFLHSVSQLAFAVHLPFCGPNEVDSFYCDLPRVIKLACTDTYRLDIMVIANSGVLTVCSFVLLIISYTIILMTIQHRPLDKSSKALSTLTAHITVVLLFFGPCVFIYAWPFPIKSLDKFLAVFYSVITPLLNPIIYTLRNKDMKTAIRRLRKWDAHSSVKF
Procedure, shortened: (§1)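 Transient luciferase assays in mammalian cell lines were common, though methods varied by source. The values come from published papers and their supplementary material, with extra details from the original authors when needed. Responsive refers to a measured signal the original authors judged statistically different from baseline, and non-responsive (inactive) to the remainder.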

OR4F6 (Homo sapiens) = biological target: T2, OR4F6 (Homo sapiens) (UniProt Q8NGB9)
T2 sequence (whole entry): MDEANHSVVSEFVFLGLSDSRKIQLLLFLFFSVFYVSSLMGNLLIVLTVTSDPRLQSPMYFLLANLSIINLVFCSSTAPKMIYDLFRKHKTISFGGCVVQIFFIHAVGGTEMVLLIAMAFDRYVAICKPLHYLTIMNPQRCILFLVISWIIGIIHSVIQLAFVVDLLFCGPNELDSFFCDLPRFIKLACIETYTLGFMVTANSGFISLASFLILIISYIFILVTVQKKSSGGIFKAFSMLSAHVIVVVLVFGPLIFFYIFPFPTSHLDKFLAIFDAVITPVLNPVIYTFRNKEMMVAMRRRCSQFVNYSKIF
Procedure, shortened: as §1

OR4K13 (Homo sapiens) = biological target: T3, OR4K13 (Homo sapiens) (UniProt Q8NH42)
T3 sequence (whole entry): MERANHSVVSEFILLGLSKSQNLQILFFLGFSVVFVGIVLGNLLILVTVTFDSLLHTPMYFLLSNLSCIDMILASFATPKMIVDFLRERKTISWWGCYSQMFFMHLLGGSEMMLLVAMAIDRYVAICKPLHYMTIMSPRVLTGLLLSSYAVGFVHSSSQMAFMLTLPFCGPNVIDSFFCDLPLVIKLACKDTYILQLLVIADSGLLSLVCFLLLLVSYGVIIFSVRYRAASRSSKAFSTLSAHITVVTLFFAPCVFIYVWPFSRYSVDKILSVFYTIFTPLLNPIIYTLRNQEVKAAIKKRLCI
Procedure, shortened: as §1

OR4K14 (Homo sapiens) = biological target: T4, OR4K14 (Homo sapiens) (UniProt Q8NGD5)
T4 sequence (whole entry): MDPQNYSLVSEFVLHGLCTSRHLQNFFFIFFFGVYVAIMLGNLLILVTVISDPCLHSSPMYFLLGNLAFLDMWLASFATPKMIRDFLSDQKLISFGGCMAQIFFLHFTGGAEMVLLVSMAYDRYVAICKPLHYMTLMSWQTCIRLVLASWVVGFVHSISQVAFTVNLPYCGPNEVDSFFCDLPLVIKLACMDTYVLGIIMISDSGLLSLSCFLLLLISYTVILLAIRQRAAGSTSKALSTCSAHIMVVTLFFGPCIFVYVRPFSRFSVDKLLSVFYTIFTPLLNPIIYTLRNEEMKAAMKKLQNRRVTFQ
Procedure, shortened: as §1

OR4K1 = system: T5, OR4K1
T5 sequence (whole entry): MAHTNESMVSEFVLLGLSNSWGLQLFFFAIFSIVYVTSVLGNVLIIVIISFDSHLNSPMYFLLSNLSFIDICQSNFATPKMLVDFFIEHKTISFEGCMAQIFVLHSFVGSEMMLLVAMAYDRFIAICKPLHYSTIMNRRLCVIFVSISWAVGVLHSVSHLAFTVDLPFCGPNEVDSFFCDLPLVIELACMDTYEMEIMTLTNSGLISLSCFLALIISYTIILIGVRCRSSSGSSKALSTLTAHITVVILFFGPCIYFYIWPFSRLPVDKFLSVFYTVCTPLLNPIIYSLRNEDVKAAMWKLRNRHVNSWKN
Procedure, shortened: as §1

OR4K2 (Homo sapiens) = biological target: T6, OR4K2 (Homo sapiens) (UniProt Q8NGD2)
T6 sequence (whole entry): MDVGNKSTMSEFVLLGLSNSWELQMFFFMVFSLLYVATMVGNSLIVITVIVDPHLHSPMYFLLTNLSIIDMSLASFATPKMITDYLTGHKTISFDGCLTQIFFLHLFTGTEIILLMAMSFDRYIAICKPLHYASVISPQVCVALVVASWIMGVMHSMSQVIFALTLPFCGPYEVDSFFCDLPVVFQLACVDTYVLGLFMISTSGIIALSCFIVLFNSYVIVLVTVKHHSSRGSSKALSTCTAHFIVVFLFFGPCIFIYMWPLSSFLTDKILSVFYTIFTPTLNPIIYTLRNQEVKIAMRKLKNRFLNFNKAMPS
Procedure, shortened: as §1

OR4K1 (Homo sapiens) = OR4K1 (Homo sapiens) (UniProt Q8NGD4)
Procedure, shortened: as §1

OR4K17 (Homo sapiens) = OR4K17 (Homo sapiens) (UniProt Q8NGC6)
Procedure, shortened: as §1

OR4K3 (Homo sapiens) = OR4K3 (Homo sapiens) (UniProt Q96R72)
Procedure, shortened: as §1

OR4K2 = system: OR4K2
Procedure, shortened: as §1
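Note: active if original authors judged signal statistically different from baseline.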

Compound	odorant receptor agonist call (OR4F4)	odorant receptor agonist call (OR4F6 (Homo sapiens))	odorant receptor agonist call (OR4K13 (Homo sapiens))	odorant receptor agonist call (OR4K14 (Homo sapiens))	odorant receptor agonist call (OR4K1)	odorant receptor agonist call (OR4K2 (Homo sapiens))	odorant receptor agonist call (OR4K1 (Homo sapiens))	odorant receptor agonist call (OR4K17 (Homo sapiens))	odorant receptor agonist call (OR4K3 (Homo sapiens))	odorant receptor agonist call (OR4K2)
C=C(C)C1CCC2=CC(=O)CC(C)C2(C)C1 (stereo not given)	active	–	–	–	–	–	–	–	–	–
COc1cc(C)ccc1O	active	inactive	inactive	inactive	inactive	inactive	–	–	–	–
O=C1CCCCCCCCCCCCCCO1	inactive	inactive	inactive	inactive	inactive	inactive	–	–	–	–
CC(C)(C)c1ccc(CCC=O)cc1	active	inactive	inactive	inactive	inactive	inactive	–	–	–	–
CC(C)(O)CCCC1=CCC(C=O)CC1 (stereo not given)	active	–	–	–	–	–	–	–	–	–
CC12CCC(CC1)C(C)(C)O2	inactive	inactive	inactive	inactive	inactive	inactive	–	–	–	–
CC(C)C=O	inactive	inactive	inactive	inactive	inactive	inactive	–	–	–	–
c1cnccn1	inactive	inactive	inactive	inactive	inactive	inactive	–	–	–	–
CCCCCCCOC(C)=O	inactive	inactive	inactive	inactive	inactive	inactive	–	–	–	–
CCCCO	active	inactive	inactive	inactive	inactive	inactive	–	–	–	–
CCC=CCCO	inactive	inactive	inactive	inactive	inactive	inactive	–	–	–	–
CCCCCCCCOC(C)=O	inactive	inactive	inactive	inactive	inactive	inactive	–	–	–	–
CC(C)=CCCC(C)=CC=O	inactive	inactive	inactive	inactive	inactive	inactive	–	–	–	–
COc1cc(C=O)ccc1O	inactive	inactive	inactive	inactive	inactive	inactive	–	–	–	–
CCC1(O)C2(C)CCC(C2)C1(C)C (stereo not given)	active	inactive	inactive	inactive	inactive	inactive	–	–	–	–
CC12C=CCC1C1CCC3CC(=O)CCC3(C)C1CC2 (stereo not given)	active	inactive	inactive	inactive	inactive	inactive	inactive	inactive	inactive	–
C=CC(C)(O)CCC=C(C)C (stereo not given)	inactive	inactive	inactive	inactive	inactive	inactive	–	–	–	–
CC1=CCC(C(C)(C)O)CC1 (stereo not given)	active	inactive	inactive	inactive	inactive	inactive	–	–	–	–
CC1CCC(C(C)C)C(O)C1 (stereo not given)	active	active	inactive	inactive	inactive	inactive	–	–	–	–
c1ccc(Oc2ccccc2)cc1	inactive	inactive	inactive	inactive	inactive	inactive	–	–	–	–
CCCCCOC(C)=O	active	inactive	inactive	inactive	inactive	inactive	–	–	–	–
COc1ccccc1O	inactive	inactive	inactive	inactive	inactive	inactive	–	–	–	–
CC(C)C(=O)O	inactive	inactive	inactive	inactive	inactive	inactive	–	–	–	–
C=CCc1ccc(OC)c(OC)c1	inactive	inactive	inactive	inactive	inactive	inactive	–	–	–	–
O=C1CCCCCCCCCCCC(=O)OCCO1	inactive	inactive	inactive	inactive	inactive	inactive	–	–	–	–
O=CCc1ccccc1	active	inactive	inactive	inactive	inactive	inactive	–	–	–	–

A draw from above in order of SMILES length, largest number first:
Compound	odorant receptor agonist call (OR4F4)	odorant receptor agonist call (OR4F6 (Homo sapiens))	odorant receptor agonist call (OR4K13 (Homo sapiens))	odorant receptor agonist call (OR4K14 (Homo sapiens))	odorant receptor agonist call (OR4K1)	odorant receptor agonist call (OR4K2 (Homo sapiens))	odorant receptor agonist call (OR4K1 (Homo sapiens))	odorant receptor agonist call (OR4K17 (Homo sapiens))	odorant receptor agonist call (OR4K3 (Homo sapiens))	odorant receptor agonist call (OR4K2)
COc1ccccc1O	inactive	inactive	inactive	inactive	inactive	inactive	–	–	–	–
CCC=CCCO	inactive	inactive	inactive	inactive	inactive	inactive	–	–	–	–
CCCCO	active	inactive	inactive	inactive	inactive	inactive	–	–	–	–

(next part)

Compound	odorant receptor agonist call (OR4F4)	odorant receptor agonist call (OR4F6 (Homo sapiens))	odorant receptor agonist call (OR4K13 (Homo sapiens))	odorant receptor agonist call (OR4K14 (Homo sapiens))	odorant receptor agonist call (OR4K1)	odorant receptor agonist call (OR4K2 (Homo sapiens))	odorant receptor agonist call (OR4K1 (Homo sapiens))	odorant receptor agonist call (OR4K17 (Homo sapiens))	odorant receptor agonist call (OR4K3 (Homo sapiens))	odorant receptor agonist call (OR4K2)
CC1=NC(C)SC1C (stereo not given)	–	inactive	inactive	inactive	inactive	inactive	–	–	–	–
CC(=O)OC(C)(C)C1CC=C(C)CC1 (stereo not given)	active	inactive	inactive	inactive	inactive	inactive	–	–	–	–
CC(=O)OC1CC2CCC1(C)C2(C)C (stereo not given)	active	inactive	inactive	inactive	inactive	inactive	–	–	–	–
CCCCCCCCCC=O	inactive	inactive	inactive	inactive	inactive	inactive	–	–	–	–
CCCCCCCCCCC=O	active	inactive	inactive	inactive	inactive	inactive	–	–	–	–
CC(C)CC(=O)O	inactive	inactive	inactive	inactive	inactive	inactive	–	–	–	–
CCCCCC(=O)O	inactive	inactive	inactive	inactive	inactive	inactive	–	–	–	–
COC(=O)c1ccccc1	–	inactive	inactive	inactive	inactive	inactive	–	–	–	–
CC12C=CCC1C1CCC3=CC(=O)CCC3(C)C1CC2 (stereo not given)	inactive	inactive	inactive	inactive	inactive	inactive	–	–	–	–
CCCCCCCC=CC=O	active	inactive	inactive	inactive	inactive	inactive	–	–	–	–
CC(=O)OCC=C(C)CCC=C(C)C	active	inactive	inactive	inactive	inactive	inactive	–	–	–	–
CCCCCCCC=O	inactive	inactive	inactive	inactive	inactive	inactive	–	–	–	–
C=CCc1ccc(OC(C)=O)c(OC)c1	active	inactive	inactive	inactive	inactive	inactive	–	–	–	–
CC1COCc2cc3c(cc21)C(C)(C)C(C)C3(C)C (stereo not given)	active	active	active	inactive	active	active	–	–	–	–
O=C1CCCCC1	–	inactive	inactive	inactive	inactive	inactive	–	–	–	–
CC(=O)C(C)=O	inactive	inactive	inactive	inactive	inactive	inactive	–	–	–	–
C=CCSCC=C	inactive	inactive	inactive	inactive	inactive	inactive	–	–	–	–
COC(=O)c1ccccc1O	inactive	inactive	inactive	inactive	inactive	inactive	–	–	–	–
CCCCCC(C)=O	–	inactive	inactive	inactive	inactive	inactive	–	–	–	inactive
CC(=O)c1ccccc1	–	inactive	inactive	inactive	inactive	inactive	–	–	–	–
CCCC(=O)O	inactive	inactive	inactive	inactive	inactive	inactive	–	–	–	–
CC(C)CCC(=O)O	active	inactive	inactive	inactive	inactive	inactive	–	–	–	–
CCCCCCOC(=O)CCC	inactive	inactive	inactive	inactive	inactive	inactive	–	–	–	–
CC12CCC(C1)C(C)(C)C2=O (stereo not given)	inactive	inactive	inactive	inactive	inactive	inactive	–	–	–	–
CC=Cc1ccc(O)c(OC)c1	inactive	inactive	inactive	inactive	inactive	inactive	–	–	–	–
